From publication doi:10.1101/2020.03.10.983148
These are yes or no findings as the source states them, for the method shown. Binding seen in cells or lysates may run through a third protein. Some binding calls cover weakened binding; strength is not graded here. For some assays here: Sequences can lack the tags named with a protein. Blank lines part the entries; values can stand above or below the binder they belong to.

Sequences of proteins named here, by UniProt entry; tags and fusion partners are left off.
UniProt Q8NFU7: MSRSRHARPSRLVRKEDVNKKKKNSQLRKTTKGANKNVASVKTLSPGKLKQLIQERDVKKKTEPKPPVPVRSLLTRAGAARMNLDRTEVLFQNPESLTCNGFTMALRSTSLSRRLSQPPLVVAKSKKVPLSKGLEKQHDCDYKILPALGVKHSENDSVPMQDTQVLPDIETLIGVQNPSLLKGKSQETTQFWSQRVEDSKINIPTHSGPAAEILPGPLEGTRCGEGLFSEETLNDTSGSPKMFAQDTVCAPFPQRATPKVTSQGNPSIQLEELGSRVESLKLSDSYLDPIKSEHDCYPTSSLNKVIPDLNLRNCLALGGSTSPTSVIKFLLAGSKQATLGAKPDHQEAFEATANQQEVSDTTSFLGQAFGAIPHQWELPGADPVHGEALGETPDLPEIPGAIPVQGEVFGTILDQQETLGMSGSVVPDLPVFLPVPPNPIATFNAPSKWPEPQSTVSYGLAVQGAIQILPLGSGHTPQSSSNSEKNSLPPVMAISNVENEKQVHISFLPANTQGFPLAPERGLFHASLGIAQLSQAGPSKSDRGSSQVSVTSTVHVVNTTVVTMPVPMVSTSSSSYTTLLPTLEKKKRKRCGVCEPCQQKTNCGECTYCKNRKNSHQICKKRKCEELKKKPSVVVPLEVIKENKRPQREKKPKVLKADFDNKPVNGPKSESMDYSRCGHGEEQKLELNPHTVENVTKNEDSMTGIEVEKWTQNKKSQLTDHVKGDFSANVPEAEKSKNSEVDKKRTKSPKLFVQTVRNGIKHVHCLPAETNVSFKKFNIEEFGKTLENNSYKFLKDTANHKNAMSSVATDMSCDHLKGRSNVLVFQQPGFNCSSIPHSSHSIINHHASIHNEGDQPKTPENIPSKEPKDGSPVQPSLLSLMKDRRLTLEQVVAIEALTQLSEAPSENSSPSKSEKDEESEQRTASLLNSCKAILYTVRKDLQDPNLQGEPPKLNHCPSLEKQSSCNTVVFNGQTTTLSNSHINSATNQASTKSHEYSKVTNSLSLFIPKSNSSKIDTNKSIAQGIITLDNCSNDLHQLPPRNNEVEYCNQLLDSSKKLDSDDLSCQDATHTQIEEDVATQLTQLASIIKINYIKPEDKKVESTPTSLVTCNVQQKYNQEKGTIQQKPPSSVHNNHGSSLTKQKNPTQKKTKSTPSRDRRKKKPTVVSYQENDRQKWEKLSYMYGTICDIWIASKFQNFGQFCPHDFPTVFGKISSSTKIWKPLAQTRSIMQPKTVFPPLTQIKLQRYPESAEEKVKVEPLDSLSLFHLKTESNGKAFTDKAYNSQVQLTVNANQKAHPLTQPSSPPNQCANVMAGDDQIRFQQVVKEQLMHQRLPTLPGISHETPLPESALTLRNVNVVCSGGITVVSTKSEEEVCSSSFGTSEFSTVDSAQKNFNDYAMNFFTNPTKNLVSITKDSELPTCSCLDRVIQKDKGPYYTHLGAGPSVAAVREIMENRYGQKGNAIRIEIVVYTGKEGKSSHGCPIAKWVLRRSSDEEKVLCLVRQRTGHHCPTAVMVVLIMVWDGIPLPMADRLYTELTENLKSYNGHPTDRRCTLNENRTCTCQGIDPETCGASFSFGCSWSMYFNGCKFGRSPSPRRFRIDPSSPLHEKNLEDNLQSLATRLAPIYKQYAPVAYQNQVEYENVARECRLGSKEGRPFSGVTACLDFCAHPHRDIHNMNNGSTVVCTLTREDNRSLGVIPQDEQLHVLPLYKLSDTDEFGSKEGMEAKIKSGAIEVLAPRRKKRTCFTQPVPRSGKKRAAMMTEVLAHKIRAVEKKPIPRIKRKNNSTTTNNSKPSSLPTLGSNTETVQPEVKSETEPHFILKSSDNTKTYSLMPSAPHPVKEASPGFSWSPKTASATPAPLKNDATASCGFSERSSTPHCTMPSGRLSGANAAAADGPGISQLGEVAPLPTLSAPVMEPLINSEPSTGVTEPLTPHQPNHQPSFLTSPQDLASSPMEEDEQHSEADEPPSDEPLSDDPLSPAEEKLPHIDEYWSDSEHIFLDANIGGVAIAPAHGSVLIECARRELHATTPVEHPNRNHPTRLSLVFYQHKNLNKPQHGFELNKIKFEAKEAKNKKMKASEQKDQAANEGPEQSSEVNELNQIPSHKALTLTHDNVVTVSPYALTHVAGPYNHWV
UniProt Q3URK3: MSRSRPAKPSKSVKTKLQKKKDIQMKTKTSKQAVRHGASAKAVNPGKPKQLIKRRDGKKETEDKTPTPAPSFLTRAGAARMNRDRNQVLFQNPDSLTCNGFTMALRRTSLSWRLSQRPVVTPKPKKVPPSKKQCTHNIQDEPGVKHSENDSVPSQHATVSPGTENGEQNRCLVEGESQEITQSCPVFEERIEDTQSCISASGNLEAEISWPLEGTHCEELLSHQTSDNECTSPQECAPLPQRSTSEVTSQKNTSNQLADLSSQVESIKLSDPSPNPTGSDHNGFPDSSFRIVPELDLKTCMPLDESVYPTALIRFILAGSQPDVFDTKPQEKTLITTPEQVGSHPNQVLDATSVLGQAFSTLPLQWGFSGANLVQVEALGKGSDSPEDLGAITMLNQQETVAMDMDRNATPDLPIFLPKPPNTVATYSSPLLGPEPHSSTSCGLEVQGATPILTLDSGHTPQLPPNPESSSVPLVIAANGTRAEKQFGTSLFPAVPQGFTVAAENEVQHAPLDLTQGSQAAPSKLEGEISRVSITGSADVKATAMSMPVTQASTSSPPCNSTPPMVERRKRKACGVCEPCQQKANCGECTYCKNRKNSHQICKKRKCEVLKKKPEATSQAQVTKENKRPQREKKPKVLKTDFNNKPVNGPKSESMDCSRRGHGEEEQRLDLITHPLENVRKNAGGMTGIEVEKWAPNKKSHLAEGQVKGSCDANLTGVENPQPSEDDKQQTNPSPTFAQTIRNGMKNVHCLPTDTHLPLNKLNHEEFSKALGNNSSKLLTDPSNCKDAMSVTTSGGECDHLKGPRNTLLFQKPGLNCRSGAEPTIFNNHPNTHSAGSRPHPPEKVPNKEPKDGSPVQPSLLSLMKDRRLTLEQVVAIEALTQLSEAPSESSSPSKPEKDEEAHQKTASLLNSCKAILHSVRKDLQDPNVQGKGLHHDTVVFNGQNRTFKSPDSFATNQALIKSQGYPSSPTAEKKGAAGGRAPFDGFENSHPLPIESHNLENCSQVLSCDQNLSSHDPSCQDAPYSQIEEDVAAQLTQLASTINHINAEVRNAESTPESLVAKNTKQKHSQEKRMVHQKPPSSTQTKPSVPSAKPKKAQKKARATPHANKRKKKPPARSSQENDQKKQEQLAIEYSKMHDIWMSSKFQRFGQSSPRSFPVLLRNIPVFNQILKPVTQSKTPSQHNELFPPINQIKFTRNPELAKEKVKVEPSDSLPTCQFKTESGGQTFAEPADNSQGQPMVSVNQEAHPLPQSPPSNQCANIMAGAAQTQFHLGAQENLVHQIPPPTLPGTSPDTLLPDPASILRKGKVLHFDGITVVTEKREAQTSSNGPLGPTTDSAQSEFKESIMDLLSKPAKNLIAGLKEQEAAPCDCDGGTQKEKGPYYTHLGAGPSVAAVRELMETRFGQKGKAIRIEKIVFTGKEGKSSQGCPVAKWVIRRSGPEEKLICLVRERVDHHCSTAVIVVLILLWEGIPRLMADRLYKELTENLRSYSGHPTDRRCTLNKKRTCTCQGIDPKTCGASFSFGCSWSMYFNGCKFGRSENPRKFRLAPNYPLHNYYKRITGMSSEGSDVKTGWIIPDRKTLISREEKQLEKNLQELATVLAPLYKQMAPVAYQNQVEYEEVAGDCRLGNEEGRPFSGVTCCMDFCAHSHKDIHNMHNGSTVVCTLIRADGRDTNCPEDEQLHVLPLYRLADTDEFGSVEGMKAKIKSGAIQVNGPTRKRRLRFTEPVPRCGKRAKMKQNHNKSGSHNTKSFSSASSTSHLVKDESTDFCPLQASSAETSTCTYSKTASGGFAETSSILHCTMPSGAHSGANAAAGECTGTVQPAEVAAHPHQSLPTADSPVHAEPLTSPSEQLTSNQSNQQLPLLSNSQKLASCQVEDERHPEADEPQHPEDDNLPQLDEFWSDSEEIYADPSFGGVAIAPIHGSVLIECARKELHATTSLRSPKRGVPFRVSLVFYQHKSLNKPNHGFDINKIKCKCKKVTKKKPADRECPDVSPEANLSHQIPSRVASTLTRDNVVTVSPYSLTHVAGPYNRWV
UniProt Q4JK59: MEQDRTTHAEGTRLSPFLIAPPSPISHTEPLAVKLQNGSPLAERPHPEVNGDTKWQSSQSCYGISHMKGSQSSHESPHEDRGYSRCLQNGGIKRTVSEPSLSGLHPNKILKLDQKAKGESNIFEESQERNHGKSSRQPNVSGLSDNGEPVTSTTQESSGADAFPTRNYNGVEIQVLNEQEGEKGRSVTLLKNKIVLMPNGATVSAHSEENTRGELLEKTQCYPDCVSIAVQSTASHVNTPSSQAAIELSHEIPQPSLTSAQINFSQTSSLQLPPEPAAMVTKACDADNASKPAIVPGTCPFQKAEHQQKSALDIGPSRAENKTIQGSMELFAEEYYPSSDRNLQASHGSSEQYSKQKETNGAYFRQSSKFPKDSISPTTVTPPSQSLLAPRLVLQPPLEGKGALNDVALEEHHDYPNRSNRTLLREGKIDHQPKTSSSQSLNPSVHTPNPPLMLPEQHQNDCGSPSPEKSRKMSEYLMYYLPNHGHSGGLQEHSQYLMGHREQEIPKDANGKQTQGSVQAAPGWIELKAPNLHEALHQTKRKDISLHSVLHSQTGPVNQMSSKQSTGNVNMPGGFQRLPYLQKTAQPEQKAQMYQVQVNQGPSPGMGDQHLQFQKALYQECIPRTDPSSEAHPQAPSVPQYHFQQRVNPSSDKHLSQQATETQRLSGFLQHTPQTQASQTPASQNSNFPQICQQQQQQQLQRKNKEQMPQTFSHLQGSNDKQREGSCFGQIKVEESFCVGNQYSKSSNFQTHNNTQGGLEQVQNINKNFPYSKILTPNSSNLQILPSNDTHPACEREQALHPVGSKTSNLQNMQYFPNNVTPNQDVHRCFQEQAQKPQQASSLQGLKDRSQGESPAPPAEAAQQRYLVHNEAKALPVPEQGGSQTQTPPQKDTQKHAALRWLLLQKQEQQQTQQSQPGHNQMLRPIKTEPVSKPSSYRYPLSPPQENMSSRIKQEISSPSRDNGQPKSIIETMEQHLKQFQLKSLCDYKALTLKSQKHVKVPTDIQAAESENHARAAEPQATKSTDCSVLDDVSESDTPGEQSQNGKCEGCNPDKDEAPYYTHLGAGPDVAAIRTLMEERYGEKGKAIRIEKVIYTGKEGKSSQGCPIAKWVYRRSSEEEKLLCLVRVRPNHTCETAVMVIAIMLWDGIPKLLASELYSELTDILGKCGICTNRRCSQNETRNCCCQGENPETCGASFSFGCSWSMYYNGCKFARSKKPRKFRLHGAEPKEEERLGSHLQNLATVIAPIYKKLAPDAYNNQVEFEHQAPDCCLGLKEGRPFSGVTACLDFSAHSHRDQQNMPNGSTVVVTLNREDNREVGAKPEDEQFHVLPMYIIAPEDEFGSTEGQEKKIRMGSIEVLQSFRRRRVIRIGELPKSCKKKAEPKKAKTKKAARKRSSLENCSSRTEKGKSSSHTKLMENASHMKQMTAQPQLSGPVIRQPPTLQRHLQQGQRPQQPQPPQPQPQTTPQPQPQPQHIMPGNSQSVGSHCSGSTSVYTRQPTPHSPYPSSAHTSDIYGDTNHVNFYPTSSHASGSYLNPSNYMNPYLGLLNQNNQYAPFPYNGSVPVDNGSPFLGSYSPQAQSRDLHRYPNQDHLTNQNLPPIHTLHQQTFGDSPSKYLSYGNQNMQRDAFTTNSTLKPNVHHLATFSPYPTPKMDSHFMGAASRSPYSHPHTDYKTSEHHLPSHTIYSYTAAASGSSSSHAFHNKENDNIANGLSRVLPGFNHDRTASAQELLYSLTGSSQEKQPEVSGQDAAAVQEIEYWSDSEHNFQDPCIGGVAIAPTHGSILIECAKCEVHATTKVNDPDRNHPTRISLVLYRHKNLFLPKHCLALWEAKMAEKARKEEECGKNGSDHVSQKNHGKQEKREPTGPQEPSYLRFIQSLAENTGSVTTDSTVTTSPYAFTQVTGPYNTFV

Key:
[1] = target: full-length Halo-tagged human TET1 (human) (UniProt Q8NFU7); assay: pull-down
[2] = target: full-length Halo-tagged human TET2 (human) (UniProt Q6N021); assay: pull-down
[3] = target: T1, full-length Halo-tagged human TET3 (human), O43151; assay: pull-down; conditions: remark: other sources report otherwise
T1 chain: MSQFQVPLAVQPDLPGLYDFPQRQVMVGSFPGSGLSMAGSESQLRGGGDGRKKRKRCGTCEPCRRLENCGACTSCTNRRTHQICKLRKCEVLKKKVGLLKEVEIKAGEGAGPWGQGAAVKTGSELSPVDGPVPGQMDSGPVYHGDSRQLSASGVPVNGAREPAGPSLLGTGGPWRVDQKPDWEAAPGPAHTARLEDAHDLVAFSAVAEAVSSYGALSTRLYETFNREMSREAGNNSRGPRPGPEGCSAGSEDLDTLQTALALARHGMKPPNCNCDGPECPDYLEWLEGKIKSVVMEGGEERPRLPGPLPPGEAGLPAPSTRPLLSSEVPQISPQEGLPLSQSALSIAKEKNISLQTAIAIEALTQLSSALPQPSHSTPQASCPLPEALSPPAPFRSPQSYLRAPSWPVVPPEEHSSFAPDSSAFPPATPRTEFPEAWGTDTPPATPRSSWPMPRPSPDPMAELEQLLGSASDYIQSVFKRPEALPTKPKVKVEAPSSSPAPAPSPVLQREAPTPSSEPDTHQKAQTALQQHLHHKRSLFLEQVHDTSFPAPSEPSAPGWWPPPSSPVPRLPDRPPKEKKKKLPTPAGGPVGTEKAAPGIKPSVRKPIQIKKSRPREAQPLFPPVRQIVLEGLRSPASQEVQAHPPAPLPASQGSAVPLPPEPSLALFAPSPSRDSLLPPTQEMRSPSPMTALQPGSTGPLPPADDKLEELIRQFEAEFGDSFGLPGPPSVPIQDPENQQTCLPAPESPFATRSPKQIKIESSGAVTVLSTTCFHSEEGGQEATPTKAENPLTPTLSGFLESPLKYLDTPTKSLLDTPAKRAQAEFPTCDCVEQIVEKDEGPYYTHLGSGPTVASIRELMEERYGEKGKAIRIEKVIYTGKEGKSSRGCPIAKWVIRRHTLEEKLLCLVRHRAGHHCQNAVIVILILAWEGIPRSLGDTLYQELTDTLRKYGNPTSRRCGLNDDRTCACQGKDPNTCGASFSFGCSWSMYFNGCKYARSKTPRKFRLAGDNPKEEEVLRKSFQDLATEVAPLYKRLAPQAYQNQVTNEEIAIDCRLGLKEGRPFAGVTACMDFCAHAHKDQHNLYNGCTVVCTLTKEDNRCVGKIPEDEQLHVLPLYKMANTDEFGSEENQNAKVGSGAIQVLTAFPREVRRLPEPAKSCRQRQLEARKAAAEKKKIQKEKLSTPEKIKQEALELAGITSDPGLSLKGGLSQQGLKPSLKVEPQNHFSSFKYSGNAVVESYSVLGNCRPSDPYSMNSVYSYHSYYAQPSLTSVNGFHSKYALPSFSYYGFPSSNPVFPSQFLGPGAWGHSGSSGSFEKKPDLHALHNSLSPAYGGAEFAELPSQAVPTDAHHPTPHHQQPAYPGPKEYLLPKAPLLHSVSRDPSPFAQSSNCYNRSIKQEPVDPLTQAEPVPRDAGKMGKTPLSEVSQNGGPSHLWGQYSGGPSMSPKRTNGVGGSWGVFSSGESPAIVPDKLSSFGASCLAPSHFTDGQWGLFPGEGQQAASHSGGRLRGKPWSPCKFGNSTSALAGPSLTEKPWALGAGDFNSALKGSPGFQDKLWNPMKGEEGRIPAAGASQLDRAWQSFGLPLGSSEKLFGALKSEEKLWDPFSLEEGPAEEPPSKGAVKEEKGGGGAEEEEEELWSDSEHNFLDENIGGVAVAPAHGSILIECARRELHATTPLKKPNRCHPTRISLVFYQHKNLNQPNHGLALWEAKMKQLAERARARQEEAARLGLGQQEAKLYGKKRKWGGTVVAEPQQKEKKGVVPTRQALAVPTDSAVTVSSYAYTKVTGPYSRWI

[4] = target: Tet1, endogenous in mouse embryonic stem cells (mouse (endogenous in ES cells)) (UniProt Q3URK3); assay: co-IP
[5] = target: Tet2, endogenous in mouse embryonic stem cells (mouse (endogenous in ES cells)) (UniProt Q4JK59); assay: co-IP

- binding [1]: binds
- binding [2]: binds
B1: lymphoid-specific helicase (LSH), endogenous in HEK293T cells (protein, UniProt Q9NRZ9 1-838)
chain: MPAERPAGSGGSEAPAMVEQLDTAVITPAMLEEEEQLEAAGLERERKMLEKARMSWDRESTEIRYRRLQHLLEKSNIYSKFLLTKMEQQQLEEQKKKEKLERKKESLKVKKGKNSIDASEEKPVMRKKRGREDESYNISEVMSKEEILSVAKKNKKENEDENSSSTNLCVEDLQKNKDSNSIIKDRLSETVRQNTKFFFDPVRKCNGQPVPFQQPKHFTGGVMRWYQVEGMEWLRMLWENGINGILADEMGLGKTVQCIATIALMIQRGVPGPFLVCGPLSTLPNWMAEFKRFTPDIPTMLYHGTQEERQKLVRNIYKRKGTLQIHPVVITSFEIAMRDRNALQHCYWKYLIVDEGHRIKNMKCRLIRELKRFNADNKLLLTGTPLQNNLSELWSLLNFLLPDVFDDLKSFESWFDITSLSETAEDIIAKEREQNVLHMLHQILTPFLLRRLKSDVALEVPPKREVVVYAPLSKKQEIFYTAIVNRTIANMFGSSEKETIELSPTGRPKRRTRKSINYSKIDDFPNELEKLISQIQPEVDRERAVVEVNIPVESEVNLKLQNIMMLLRKCCNHPYLIEYPIDPVTQEFKIDEELVTNSGKFLILDRMLPELKKRGHKVLLFSQMTSMLDILMDYCHLRDFNFSRLDGSMSYSEREKNMHSFNTDPEVFIFLVSTRAGGLGINLTAADTVIIYDSDWNPQSDLQAQDRCHRIGQTKPVVVYRLVTANTIDQKIVERAAAKRKLEKLIIHKNHFKGGQSGLNLSKNFLDPKELMELLKSRDYEREIKGSREKVISDKDLELLLDRSDLIDQMNASGPIKEKMGIFKILENSEDSSPECLF

- binding [3]: binds
B2: lymphoid-specific helicase (LSH), endogenous in HEK293T cells, Q9NRZ9 1-838 (protein)
chain: B1 chain

- binding [4]: binds
- binding [5]: binds
B3: Lsh, endogenous in mouse embryonic stem cells (protein, UniProt Q60848 1-821)
chain: MAEQTEPAVITPAMLEEEEQLEAAGLEKERKMLEEAQKSWDRESTEIRYRRLQHLLEKSNIYSKFLLTKMEQQQLEEQKKKEKLEKKKRSLKLTEGKSLVDGNGEKPVMKKKRGREDESYNISEVMSKEEILSVAKKHKDNEDESSSTTSLCVEDIQKNKDSNSMIKDRLSQTVRQNSKFFFDPVRKCNGQPVPFQQPKHFTGGVMRWYQVEGMEWLRMLWENGINGILADEMGLGKTVQCIATIALMIQRGVPGPFLVCGPLSTLPNWMAEFKRFTPEIPTLLYHGTREDRRKLVKNIHKRQGTLQIHPVVVTSFEIAMRDQNALQHCYWKYLIVDEGHRIKNMKCRLIRELKRFNADNKLLLTGTPLQNNLSELWSLLNFLLPDVFDDLKSFESWFDITSLSETAEDIIAKEREQNVLHMLHQILTPFLLRRLKSDVALEVPPKREVVVYAPLCNKQEIFYTAIVNRTIANMFGSCEKETVELSPTGRPKRRSRKSINYSELDQFPSELEKLISQIQPEVNRERTVVEGNIPIESEVNLKLRNIMMLLRKCCNHPYMIEYPIDPVTQEFKIDEELVTNSGKFLILDRMLPELKKRGHKVLVFSQMTSMLDILMDYCHLRNFIFSRLDGSMSYSEREKNIYSFNTDPDVFLFLVSTRAGGLGINLTAADTVIIYDSDWNPQSDLQAQDRCHRIGQTKPVVVYRLVTANTIDQKIVERAAAKRKLEKLIIHKNHFKGGQSGLSQSKNFLDAKELMELLKSRDYEREVKGSREKVISDEDLELLLDRSDLIDQMKASRPIKGKTGIFKILENSEDSSAECLF
